± gives the standard deviation of the averaged measurements. The entries are a selection whose mix differs from that of the whole data set.
Compound: Nc1ncnc2c1ncn2[C@@H]1O[C@H](COP(=O)(O)OP(=O)(O)NP(=O)(O)O)[C@@H](O)[C@H]1O [adenylyl imidodiphosphate]
Assay: NP40-soluble protein abundance relative to vehicle (solubility fold change) (ratio); higher = more soluble protein in presence of AMP-PNP
Summary of the method: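 Jurkat crude lysate prepared with a Dounce homogeniser was treated at eight concentrations spanning 0.1 to 10 mM, 10 min at room temperature then 3 min at 37 °C. Solubilisation with 0.8% NP40 and benzonase and ultracentrifugation preceded TMT labelling of the supernatant for LC-MS/MS. Fold change against the detergent-processed vehicle was determined per replicate from vsn-normalised intensities, across three independent experiments.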

The chains behind the UniProt entries cited, without tags or fusion partners. Where a name states a change or a piece, a line headed by the entry shows the natural chain unless it says otherwise.
UniProt P04053: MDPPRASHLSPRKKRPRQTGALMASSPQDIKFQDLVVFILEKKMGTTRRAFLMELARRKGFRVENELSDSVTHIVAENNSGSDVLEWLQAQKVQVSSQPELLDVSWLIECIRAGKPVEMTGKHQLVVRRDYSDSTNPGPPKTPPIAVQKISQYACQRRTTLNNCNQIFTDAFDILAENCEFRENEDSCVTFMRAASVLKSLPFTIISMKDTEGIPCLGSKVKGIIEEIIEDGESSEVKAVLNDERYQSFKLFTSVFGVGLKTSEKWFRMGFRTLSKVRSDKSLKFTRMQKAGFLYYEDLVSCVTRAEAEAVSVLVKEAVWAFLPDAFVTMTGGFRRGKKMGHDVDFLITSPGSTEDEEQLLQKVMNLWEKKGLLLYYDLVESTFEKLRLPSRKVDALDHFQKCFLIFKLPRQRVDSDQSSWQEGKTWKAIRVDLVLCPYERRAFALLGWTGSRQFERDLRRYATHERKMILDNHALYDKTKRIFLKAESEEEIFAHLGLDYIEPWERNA
UniProt P15374: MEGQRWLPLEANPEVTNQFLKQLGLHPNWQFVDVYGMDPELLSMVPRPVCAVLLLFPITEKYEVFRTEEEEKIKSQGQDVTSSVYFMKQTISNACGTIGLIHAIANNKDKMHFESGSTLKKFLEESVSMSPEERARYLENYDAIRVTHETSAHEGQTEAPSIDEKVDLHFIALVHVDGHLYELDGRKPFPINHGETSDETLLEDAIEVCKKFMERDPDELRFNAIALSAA
UniProt O95989: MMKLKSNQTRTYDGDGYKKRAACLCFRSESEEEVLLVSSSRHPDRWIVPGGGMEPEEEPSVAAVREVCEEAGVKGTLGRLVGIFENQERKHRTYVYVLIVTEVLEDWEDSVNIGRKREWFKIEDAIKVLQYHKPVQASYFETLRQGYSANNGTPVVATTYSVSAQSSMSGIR
UniProt P13716: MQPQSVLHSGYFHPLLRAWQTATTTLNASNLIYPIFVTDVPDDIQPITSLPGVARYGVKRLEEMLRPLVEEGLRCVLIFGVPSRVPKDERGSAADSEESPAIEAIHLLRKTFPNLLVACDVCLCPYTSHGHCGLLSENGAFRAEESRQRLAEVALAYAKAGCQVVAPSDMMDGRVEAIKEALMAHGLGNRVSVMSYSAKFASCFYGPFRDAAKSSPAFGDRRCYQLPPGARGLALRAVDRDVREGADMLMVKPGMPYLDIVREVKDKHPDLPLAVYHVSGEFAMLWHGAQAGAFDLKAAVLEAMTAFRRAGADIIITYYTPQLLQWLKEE
UniProt P06127: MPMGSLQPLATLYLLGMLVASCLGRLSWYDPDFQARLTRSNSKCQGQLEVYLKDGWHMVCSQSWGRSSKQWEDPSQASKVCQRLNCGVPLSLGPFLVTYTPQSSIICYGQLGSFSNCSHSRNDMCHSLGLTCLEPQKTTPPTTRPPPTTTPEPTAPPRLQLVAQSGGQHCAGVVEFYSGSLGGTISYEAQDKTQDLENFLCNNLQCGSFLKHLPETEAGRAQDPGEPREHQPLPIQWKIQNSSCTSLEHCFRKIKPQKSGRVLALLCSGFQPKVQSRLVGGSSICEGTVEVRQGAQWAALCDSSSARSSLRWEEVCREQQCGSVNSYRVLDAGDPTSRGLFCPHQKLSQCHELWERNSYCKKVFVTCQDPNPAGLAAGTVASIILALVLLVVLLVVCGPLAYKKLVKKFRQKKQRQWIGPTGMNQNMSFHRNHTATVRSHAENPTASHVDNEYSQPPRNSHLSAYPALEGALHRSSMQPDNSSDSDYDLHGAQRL
UniProt O95801: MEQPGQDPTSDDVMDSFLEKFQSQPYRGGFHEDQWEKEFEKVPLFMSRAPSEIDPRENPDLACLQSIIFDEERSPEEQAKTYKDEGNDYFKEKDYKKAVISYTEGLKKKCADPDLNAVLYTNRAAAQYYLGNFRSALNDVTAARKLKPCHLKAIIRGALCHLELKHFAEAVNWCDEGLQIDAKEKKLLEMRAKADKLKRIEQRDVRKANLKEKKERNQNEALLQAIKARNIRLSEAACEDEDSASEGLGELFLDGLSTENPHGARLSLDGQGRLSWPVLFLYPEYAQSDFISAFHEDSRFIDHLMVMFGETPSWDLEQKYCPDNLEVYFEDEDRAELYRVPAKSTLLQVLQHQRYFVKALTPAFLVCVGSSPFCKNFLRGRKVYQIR
UniProt O95983: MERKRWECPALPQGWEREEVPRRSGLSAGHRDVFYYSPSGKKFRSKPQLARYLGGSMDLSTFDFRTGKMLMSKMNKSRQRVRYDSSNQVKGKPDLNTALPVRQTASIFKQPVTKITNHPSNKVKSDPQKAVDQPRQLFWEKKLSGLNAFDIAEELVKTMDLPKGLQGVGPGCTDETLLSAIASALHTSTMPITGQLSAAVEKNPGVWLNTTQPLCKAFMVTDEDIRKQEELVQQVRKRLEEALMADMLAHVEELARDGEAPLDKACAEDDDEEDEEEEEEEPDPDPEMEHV
UniProt O95834: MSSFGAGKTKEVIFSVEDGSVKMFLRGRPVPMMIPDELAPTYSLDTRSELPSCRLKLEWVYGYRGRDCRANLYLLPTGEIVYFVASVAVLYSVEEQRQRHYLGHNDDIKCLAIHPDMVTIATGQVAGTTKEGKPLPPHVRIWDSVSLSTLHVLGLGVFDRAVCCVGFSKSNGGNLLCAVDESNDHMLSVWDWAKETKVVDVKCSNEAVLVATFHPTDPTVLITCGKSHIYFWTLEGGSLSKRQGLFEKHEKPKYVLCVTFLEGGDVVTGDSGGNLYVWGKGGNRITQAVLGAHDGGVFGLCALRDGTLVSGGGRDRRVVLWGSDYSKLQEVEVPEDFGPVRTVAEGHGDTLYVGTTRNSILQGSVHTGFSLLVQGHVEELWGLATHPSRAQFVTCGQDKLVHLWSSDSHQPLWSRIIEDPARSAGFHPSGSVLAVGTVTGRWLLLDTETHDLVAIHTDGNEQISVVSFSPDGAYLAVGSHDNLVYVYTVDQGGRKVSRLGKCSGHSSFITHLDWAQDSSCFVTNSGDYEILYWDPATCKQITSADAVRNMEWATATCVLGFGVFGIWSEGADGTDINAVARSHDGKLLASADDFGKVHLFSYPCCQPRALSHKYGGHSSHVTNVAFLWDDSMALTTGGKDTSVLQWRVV
UniProt P11766: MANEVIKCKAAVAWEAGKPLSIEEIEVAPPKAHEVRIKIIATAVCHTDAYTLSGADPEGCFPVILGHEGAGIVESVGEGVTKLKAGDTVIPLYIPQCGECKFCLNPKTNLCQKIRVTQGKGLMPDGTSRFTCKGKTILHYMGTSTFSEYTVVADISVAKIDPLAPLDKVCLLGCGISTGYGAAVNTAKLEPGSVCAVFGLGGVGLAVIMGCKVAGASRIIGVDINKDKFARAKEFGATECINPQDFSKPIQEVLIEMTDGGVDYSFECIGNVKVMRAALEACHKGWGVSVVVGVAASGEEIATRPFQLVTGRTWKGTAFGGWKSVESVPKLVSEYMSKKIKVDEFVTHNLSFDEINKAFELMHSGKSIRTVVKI
UniProt P14866: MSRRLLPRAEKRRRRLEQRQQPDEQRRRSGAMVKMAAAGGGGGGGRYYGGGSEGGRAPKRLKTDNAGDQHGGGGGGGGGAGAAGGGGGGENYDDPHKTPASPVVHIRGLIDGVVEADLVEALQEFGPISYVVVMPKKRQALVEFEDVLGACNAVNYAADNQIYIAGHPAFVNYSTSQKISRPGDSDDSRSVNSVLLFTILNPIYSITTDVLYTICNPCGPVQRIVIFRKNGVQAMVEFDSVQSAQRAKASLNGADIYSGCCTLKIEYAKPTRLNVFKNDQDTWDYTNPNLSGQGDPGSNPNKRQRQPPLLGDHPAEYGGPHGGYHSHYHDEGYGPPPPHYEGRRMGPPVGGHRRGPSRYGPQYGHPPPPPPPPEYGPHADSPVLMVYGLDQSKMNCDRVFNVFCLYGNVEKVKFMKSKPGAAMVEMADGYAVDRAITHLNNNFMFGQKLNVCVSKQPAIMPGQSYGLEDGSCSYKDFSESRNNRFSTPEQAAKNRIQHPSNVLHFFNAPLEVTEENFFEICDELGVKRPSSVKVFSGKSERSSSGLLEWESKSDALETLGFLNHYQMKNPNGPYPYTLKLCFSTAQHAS
UniProt P0CG13, whole entry: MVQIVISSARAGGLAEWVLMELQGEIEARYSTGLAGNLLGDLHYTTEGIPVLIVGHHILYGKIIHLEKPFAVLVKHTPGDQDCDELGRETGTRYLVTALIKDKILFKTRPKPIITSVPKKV
UniProt O95825: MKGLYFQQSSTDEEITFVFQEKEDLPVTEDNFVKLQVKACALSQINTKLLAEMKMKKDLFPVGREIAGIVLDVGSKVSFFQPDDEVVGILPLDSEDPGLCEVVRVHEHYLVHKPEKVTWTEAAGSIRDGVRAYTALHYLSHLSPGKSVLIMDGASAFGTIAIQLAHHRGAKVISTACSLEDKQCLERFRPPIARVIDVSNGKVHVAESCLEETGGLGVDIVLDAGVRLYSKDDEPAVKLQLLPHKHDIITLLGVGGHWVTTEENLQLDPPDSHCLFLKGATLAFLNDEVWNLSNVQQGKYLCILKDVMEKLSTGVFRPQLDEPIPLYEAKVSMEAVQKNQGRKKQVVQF
UniProt P06132: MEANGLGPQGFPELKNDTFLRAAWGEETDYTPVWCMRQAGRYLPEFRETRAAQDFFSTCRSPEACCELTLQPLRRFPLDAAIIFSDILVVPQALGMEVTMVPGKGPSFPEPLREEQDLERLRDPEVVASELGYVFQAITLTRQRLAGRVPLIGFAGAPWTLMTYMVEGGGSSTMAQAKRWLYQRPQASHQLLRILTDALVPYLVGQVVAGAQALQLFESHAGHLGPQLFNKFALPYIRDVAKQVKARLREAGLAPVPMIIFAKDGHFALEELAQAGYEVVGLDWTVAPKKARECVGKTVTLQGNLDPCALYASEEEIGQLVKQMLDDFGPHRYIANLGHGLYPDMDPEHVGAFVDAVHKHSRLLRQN
UniProt P09104, whole entry: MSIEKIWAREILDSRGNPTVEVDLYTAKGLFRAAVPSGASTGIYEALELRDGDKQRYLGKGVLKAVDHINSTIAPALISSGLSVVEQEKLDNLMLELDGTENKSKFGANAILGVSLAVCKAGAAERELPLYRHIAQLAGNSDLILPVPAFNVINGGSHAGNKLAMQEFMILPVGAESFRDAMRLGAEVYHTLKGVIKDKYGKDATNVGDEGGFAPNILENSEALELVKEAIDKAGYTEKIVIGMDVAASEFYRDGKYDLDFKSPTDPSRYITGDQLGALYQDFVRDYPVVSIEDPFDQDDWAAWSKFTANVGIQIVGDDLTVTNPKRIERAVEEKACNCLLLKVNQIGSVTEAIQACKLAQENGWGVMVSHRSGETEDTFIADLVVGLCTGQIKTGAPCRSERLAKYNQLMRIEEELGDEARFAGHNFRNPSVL
UniProt P02794, whole entry: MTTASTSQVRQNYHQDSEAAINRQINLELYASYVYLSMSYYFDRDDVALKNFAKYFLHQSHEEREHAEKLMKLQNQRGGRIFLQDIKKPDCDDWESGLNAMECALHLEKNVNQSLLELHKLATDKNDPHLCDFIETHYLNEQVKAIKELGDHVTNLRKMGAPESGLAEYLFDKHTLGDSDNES
UniProt P11182, whole entry: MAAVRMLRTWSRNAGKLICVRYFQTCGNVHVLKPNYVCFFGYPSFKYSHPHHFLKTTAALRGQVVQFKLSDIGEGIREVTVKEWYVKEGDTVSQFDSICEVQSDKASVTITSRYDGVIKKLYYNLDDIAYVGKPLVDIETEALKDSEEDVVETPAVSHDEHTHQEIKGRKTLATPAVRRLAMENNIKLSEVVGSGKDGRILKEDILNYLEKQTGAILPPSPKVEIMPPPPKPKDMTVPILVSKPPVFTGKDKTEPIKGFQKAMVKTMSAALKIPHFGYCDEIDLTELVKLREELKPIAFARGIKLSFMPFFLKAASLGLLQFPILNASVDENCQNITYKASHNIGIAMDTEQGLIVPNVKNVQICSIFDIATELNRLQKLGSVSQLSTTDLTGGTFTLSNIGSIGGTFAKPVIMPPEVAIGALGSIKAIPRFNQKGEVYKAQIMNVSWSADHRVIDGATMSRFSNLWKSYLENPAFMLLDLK
UniProt P35520: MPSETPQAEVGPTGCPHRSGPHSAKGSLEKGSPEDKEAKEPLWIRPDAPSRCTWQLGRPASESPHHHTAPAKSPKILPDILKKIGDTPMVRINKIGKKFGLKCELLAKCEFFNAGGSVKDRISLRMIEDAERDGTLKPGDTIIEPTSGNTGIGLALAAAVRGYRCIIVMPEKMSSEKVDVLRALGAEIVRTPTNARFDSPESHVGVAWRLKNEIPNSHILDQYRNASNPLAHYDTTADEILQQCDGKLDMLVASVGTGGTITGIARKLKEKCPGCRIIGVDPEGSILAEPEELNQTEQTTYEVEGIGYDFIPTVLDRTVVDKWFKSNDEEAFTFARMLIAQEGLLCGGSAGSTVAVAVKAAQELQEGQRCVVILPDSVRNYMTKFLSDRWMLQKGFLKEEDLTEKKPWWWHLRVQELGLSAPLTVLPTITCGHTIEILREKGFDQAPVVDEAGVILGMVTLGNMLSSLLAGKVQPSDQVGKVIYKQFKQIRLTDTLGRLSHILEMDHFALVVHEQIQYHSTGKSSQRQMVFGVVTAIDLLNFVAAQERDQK

Target	NP40-soluble protein abundance (concentration: 1mM)	NP40-soluble protein abundance (concentration: 2mM)	NP40-soluble protein abundance (concentration: 4mM)	NP40-soluble protein abundance (concentration: 6mM)	NP40-soluble protein abundance (concentration: 8mM)	NP40-soluble protein abundance (concentration: 10mM)
DLAT (UniProt P10515)	0.959 ± 0.23	0.904 ± 0.2	0.904 ± 0.31	0.877 ± 0.31	0.899 ± 0.27	0.923 ± 0.31
UniProt P05165 and related entries	1.03 ± 0.035	0.998 ± 0.053	0.978 ± 0.019	0.961 ± 0.047	0.932 ± 0.069	0.946 ± 0.064
UniProt P04053 and related entries	1.02 ± 0.038	0.916 ± 0.089	1.009 ± 0.0077	1 ± 0.043	1.03 ± 0.034	0.993 ± 0.029
UCHL3 (UniProt P15374)	1.06 ± 0.013	1.05 ± 0.017	1.04 ± 0.025	1.01 ± 0.0052	1.02 ± 0.012	0.988 ± 0.038
GALT (UniProt P07902)	1.01 ± 0.041	1.04 ± 0.034	1.01 ± 0.033	1 ± 0.034	0.995 ± 0.044	1.01 ± 0.058
NUDT3 (UniProt O95989)	1.03 ± 0.098	0.983 ± 0.068	0.968 ± 0.12	0.986 ± 0.064	0.994 ± 0.11	0.917 ± 0.033
UniProt P00491	1 ± 0.047	0.924 ± 0.038	0.988 ± 0.024	0.998 ± 0.047	1.03 ± 0.033	0.961 ± 0.033
TOP1 (UniProt P11387)	1.03 ± 0.028	1.03 ± 0.045	1.1 ± 0.023	1.184 ± 0.0062	1.24 ± 0.014	1.31 ± 0.018
UniProt P06576 and related entries	1.03 ± 0.059	1.02 ± 0.036	1.01 ± 0.032	0.965 ± 0.077	0.951 ± 0.057	0.985 ± 0.076
UniProt P13716 and related entries	1.02 ± 0.021	0.976 ± 0.045	1.03 ± 0.04	1.02 ± 0.056	1.01 ± 0.065	1.02 ± 0.05
GAA (UniProt P10253)	0.998 ± 0.011	0.992 ± 0.012	1.02 ± 0.022	1.02 ± 0.047	1.04 ± 0.014	1.04 ± 0.031
UniProt P06239 and related entries	1.05 ± 0.024	1.02 ± 0.11	1.05 ± 0.046	1 ± 0.035	0.996 ± 0.043	0.99 ± 0.065
UniProt P06127	1.04 ± 0.015	1.1 ± 0.069	1.06 ± 0.021	1.023 ± 0.0075	1.01 ± 0.021	1.07 ± 0.019
TTC4 (UniProt O95801)	1.02 ± 0.033	1.02 ± 0.015	0.9819 ± 0.0095	0.979 ± 0.015	0.949 ± 0.025	0.973 ± 0.027
SLC25A5 (UniProt P05141)	0.973 ± 0.01	0.959 ± 0.028	0.991 ± 0.015	1.06 ± 0.026	1.12 ± 0.046	1.17 ± 0.046
UniProt O95749 and related entries	1 ± 0.032	0.969 ± 0.027	0.9656 ± 0.0033	0.974 ± 0.016	0.978 ± 0.017	0.944 ± 0.015
UniProt O95983 and related entries	0.99 ± 0.042	1.01 ± 0.041	0.979 ± 0.026	0.936 ± 0.054	0.967 ± 0.059	0.918 ± 0.069

Some of the entries so far, field by field.
TOP1 (UniProt P11387)
  NP40-soluble protein abundance (concentration: 1mM): 1.03 ± 0.028; NP40-soluble protein abundance (concentration: 2mM): 1.03 ± 0.045; NP40-soluble protein abundance (concentration: 4mM): 1.1 ± 0.023; NP40-soluble protein abundance (concentration: 6mM): 1.184 ± 0.0062; NP40-soluble protein abundance (concentration: 8mM): 1.24 ± 0.014; NP40-soluble protein abundance (concentration: 10mM): 1.31 ± 0.018
UniProt P06576 and related entries
  NP40-soluble protein abundance (concentration: 1mM): 1.03 ± 0.059; NP40-soluble protein abundance (concentration: 2mM): 1.02 ± 0.036; NP40-soluble protein abundance (concentration: 4mM): 1.01 ± 0.032; NP40-soluble protein abundance (concentration: 6mM): 0.965 ± 0.077; NP40-soluble protein abundance (concentration: 8mM): 0.951 ± 0.057; NP40-soluble protein abundance (concentration: 10mM): 0.985 ± 0.076

More results

Target	NP40-soluble protein abundance (concentration: 1mM)	NP40-soluble protein abundance (concentration: 2mM)	NP40-soluble protein abundance (concentration: 4mM)	NP40-soluble protein abundance (concentration: 6mM)	NP40-soluble protein abundance (concentration: 8mM)	NP40-soluble protein abundance (concentration: 10mM)
CTSB (UniProt P07858)	1.01 ± 0.035	1.03 ± 0.025	0.995 ± 0.043	0.968 ± 0.035	0.971 ± 0.037	0.966 ± 0.055
UniProt O95834 and related entries	0.988 ± 0.011	0.932 ± 0.081	0.982 ± 0.023	0.952 ± 0.018	0.967 ± 0.015	0.93 ± 0.022
ADH5 (UniProt P11766)	0.978 ± 0.043	0.947 ± 0.017	0.957 ± 0.038	1 ± 0.065	1.01 ± 0.027	0.99 ± 0.022
PAK4 (UniProt O96013)	1 ± 0.027	1.04 ± 0.027	1.02 ± 0.041	1.02 ± 0.05	0.995 ± 0.031	1.02 ± 0.048
UniProt P09651-2|P09651	1.04 ± 0.11	1.09 ± 0.075	1.09 ± 0.11	1.14 ± 0.15	1.18 ± 0.15	1.25 ± 0.18
HNRNPL (UniProt P14866)	1.04 ± 0.096	1.08 ± 0.043	1.03 ± 0.089	1.02 ± 0.14	1.03 ± 0.12	1.08 ± 0.16
P0CG12 and related entries (UniProt P0CG13)	0.9562 ± 0.0082	0.9635 ± 0.0031	0.976 ± 0.033	1.04 ± 0.066	1.02 ± 0.069	0.9954 ± 0.0088
CRYZL1 (UniProt O95825)	0.968 ± 0.017	0.927 ± 0.054	0.961 ± 0.031	0.951 ± 0.034	0.958 ± 0.049	0.953 ± 0.039
DARS (UniProt P14868)	0.954 ± 0.034	0.9 ± 0.1	0.934 ± 0.077	0.942 ± 0.061	0.954 ± 0.09	0.936 ± 0.12
UROD (UniProt P06132)	1.01 ± 0.02	0.992 ± 0.044	1.01 ± 0.043	0.947 ± 0.042	0.967 ± 0.015	0.939 ± 0.044
ENO2 (UniProt P09104)	1.01 ± 0.012	0.997 ± 0.015	0.9698 ± 0.0082	0.986 ± 0.023	0.99 ± 0.038	0.946 ± 0.046
FTH1 (UniProt P02794)	1.01 ± 0.078	1.03 ± 0.026	0.984 ± 0.03	0.87 ± 0.1	0.887 ± 0.09	0.864 ± 0.093
UniProt O95985 and related entries	0.997 ± 0.014	0.982 ± 0.023	0.995 ± 0.027	0.991 ± 0.016	1.02 ± 0.014	1 ± 0.031
COX5B (UniProt P10606)	1.01 ± 0.017	1.06 ± 0.079	1.01 ± 0.02	0.959 ± 0.017	0.954 ± 0.043	0.981 ± 0.023
DBT (UniProt P11182)	0.977 ± 0.14	1.01 ± 0.12	1.01 ± 0.15	0.999 ± 0.2	0.971 ± 0.14	1.03 ± 0.19
P0DN79 and related entries (UniProt P35520+P0DN79)	1.01 ± 0.048	0.97 ± 0.044	1.01 ± 0.036	0.9986 ± 0.0076	0.993 ± 0.041	1.01 ± 0.017
HIST1H1D (UniProt P16402)	1.04 ± 0.07	1.14 ± 0.12	1.13 ± 0.12	1.15 ± 0.051	1.2 ± 0.14	1.32 ± 0.015
